For series [1], the system named is LysR1. The series is described as follows: EMSA. The settings on record: 50 mM Tris-HCl, 250 mM KCl, pH 8.5, room temperature 20 min, 200 ng Cy3-DNA and 200 ng salmon sperm DNA per 30 ul, 0-1000 ng protein (pairs up to 2000 ng total), recombinant protein, protein details: C-terminal His6 (pET21a), label: Cy3-dCTP, internal. A general note: In EMSA bound probe runs differently from free probe, usually more slowly.

Series [2] relates to LysR2. The series can be described thus: EMSA. The settings on record: 50 mM Tris-HCl, 250 mM KCl, pH 8.5, room temperature 20 min, 200 ng Cy3-DNA and 200 ng salmon sperm DNA per 30 ul, 0-1000 ng protein (pairs up to 2000 ng total), recombinant protein, protein details: C-terminal His6 (pET21a), label: Cy3-dCTP, internal.

Construct, isoform or probe ends are uncertain for at least one entry. For some of these results: A negative result means that nothing was seen under these conditions.

As to “AACCACGTTCGTTTGATTGGTTATGATAACTATGCACAGTCTCAAGGTGCGAACATGCTTATTAAGCGTGGTGACATGTAATTTTAATTAAAATTACATGACCTTACCCCTCAGGCGTTGCCTGAGGGGCCAAATTTTGAGGGGAGATTAAACATCGGGTTTAATGCTTCTCTCGCCCTGGTTTACTTAGGCAGCTTATACCTCCTGCTTAAGTAACGGCCAGCTAGCCCCGAAACTAGCTGGTTTTCAATCCATTTAGATTTACTTATTTTAATCAAGTAATGAAATCTAAATATTTTGAATGCTACTTGCCAATGGAGAAAAAACATGTCGGAAATTAACGCATTAGATCCTAGTCAATACCTTATTAAAGACGAGCCA (double strand) [ncr cbbS/cbbQ-1]”, the values for the binding result in series [1], in series [2] (CbbM present (required)) and in series [2] (LysR2 alone) were “binds”, “binds” and “no binding”, respectively.
For the sequence “AGCCGCTTCATAAAGTTCAACCTCATTGGATTGAGCATCATAAAATGGTTCGTTTTCAATCTTGTATTGTGTAATGTCCATATCAGTTCCCCGTAACGTTTATGGTAGGTATTTTCAAACAGAGTGTGAAAATACCGATGAATAAATTAAAGCGATATTAAAGTCATTTAGGTTTCTGGTTTACCGTAAGACAGGTAAAAGAGAAAACTAAATAACCTTGTGTTTGGCTAGGTTTTTGGTTTGGGTGTTAAAAAAACCCCTGCGCGAACGCAGAGGTTTCTTGGGTGTTTAAATAAACATTCGTTAAAGAATGGCTTATTTGTGTACGCCCAACTTCTCTCTCCAACCTGGGTAGATTGTGTCTGCATCTG (double strand) [ncr cbbQ-m/cbbM]”, the binding result in series [1] and in series [2] was “binds” throughout.
With “CTGGGCGGTTATATGTAAGTTTTGCATTTGGTTTTCCTAATTGGTAAACTCATAAATGGTTGATATATAAAGTAAATGAGAGGAATCATATACATTTGTTTATGAATTGTATAACAAATACTCAATATATCACCAGATTATTTTAGATAAGATACGAATCACTGAAAGCGGAAGTGTTTTTAAAACGCAATTTAAGAATCGCTTTCTCTAACTCTTTTCATGATTAAACTAAAACGAAGAGGTAAACCATGGCTAAGACTTATAACGCCGGTGTA (double strand) [ncr lysR1/cbbL]”, the binding result is recorded as “binds” in series [1]; “binds” in series [1] (CbbL present (enhanced)); “binds” in series [1] (LysR2 present (enhanced, heteromultimer suggested)); “binds” in series [2] (CbbM present (required)); “no binding” in series [2] (LysR2 alone).
For the sequence “TGCAGCAACTTCTAAGTAACCGTAACCAGCAGCAGGTTCCATTGTGTAAGCAACAAGAATGTGATTCTGACCAGCAATCAGATCTTCTTCTTTTAGGCTTAAATCAGCATAACGATTCGACTGATCCATGTTTTATACCTCTATATATTGGGACAACAGCTCAGGAAAGTGTGTCCATAATTTTTGTTAAGTCATTGTAAAAACAACTTAACCCCGAAATTTGAATGGTCATTATAGAGGTTGTTCAGATAACTTCAAATCAATATTTTTGATTAAATTGATAGACTATTATCTATTCTAGTGAGGTGCGATTTAAATGATGCGTAATAATCTGCAAAGTTGGGTTAGCGAAATTGGTTAAACGCCTGT (double strand) [ncr cbbM/lysR2]”, the binding result in series [1], in series [2] and in series [2] (CbbM present (enhanced)) was “binds” throughout.
